# In the supplement of paper PMC12067093, “Discovery and optimisation of a covalent ligand for TRIM25 and its application to targeted protein ubiquitination” (Chemical Science, 2025):
# Amino acid sequences for entries named in this document (tags omitted). A change or cut given only in a name is not applied to a line headed by its entry.
# UniProt Q01469, whole entry, looked up: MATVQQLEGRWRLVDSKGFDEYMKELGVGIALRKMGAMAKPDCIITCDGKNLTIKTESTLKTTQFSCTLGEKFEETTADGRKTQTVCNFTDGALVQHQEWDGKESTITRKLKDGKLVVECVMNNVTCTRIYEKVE
# UniProt P13804: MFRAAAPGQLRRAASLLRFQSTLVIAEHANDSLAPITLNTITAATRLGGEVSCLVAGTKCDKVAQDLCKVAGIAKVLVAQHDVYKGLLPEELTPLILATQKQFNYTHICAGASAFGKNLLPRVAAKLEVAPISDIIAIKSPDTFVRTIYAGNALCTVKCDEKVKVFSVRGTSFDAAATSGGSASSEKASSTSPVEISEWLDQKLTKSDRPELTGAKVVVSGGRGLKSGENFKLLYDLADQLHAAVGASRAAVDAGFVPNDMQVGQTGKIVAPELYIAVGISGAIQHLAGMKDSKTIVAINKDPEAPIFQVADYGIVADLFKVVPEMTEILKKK
# UniProt P10768: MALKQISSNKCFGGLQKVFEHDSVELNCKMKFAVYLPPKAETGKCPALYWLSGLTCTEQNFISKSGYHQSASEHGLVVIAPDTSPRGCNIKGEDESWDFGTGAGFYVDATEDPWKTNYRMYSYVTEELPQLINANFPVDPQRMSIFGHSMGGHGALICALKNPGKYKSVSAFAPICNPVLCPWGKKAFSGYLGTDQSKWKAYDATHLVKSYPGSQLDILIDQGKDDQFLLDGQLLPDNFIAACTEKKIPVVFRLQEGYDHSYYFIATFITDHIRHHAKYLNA
# UniProt P84090, whole entry, looked up: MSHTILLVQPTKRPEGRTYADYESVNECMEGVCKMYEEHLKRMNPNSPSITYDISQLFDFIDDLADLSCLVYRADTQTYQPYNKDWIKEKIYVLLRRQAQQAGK
# UniProt Q5T8I3: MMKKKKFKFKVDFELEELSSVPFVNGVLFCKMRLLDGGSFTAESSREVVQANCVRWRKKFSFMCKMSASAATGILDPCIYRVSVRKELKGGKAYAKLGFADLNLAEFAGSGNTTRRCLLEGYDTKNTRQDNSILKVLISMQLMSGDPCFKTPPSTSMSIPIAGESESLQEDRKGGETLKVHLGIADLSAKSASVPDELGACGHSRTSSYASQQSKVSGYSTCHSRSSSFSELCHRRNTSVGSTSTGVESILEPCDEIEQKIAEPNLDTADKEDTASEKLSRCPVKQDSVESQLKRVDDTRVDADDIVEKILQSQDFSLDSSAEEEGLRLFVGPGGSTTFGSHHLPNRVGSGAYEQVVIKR
# UniProt Q15024, whole entry, looked up: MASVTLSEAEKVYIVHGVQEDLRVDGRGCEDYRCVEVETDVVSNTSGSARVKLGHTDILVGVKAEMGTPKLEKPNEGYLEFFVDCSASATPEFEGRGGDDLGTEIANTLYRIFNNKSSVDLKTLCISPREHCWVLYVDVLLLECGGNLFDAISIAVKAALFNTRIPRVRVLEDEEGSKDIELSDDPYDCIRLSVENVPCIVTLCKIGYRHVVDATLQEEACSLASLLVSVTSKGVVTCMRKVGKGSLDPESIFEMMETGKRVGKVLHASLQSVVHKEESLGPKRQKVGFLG
# UniProt Q06265, whole entry, looked up: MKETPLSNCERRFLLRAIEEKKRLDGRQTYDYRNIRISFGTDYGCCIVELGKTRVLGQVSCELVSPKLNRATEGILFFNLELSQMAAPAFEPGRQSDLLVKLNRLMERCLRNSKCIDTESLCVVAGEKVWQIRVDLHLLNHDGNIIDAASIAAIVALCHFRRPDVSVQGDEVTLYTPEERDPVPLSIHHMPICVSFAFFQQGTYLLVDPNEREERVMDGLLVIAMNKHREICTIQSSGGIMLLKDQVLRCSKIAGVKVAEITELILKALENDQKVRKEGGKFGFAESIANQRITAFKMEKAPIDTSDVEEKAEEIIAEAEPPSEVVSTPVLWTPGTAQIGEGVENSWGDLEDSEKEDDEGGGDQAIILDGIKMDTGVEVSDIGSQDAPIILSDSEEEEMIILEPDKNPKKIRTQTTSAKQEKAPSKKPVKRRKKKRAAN
# UniProt O95571: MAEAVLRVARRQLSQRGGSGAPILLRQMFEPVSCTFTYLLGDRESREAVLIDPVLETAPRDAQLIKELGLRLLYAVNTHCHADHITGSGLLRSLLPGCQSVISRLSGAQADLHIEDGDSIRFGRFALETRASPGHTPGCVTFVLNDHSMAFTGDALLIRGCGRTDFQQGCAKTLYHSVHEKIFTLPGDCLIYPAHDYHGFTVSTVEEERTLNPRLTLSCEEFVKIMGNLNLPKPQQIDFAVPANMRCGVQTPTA
# UniProt Q96EK7: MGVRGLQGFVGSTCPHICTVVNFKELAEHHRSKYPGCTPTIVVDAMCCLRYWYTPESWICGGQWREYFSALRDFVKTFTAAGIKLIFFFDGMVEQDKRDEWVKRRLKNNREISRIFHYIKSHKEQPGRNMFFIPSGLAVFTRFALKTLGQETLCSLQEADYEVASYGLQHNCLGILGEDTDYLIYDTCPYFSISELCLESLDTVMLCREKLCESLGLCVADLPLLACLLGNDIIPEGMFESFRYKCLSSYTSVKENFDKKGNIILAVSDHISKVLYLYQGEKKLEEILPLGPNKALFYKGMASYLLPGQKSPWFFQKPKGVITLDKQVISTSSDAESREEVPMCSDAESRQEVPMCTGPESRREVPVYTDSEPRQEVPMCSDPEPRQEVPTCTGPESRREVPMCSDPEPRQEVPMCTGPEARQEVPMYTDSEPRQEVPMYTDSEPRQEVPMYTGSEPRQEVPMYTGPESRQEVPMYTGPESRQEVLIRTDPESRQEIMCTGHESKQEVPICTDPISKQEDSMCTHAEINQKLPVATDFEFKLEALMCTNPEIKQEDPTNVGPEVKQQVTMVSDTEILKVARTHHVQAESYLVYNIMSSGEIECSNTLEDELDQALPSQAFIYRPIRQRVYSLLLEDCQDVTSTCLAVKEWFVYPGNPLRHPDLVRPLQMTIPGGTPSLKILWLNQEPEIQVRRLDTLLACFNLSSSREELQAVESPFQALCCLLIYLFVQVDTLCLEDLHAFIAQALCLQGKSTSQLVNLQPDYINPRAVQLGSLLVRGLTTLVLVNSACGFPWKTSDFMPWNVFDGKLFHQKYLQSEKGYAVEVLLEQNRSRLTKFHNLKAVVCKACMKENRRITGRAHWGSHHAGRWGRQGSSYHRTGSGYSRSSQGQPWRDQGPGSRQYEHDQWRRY
# UniProt Q5RKV6, whole entry, looked up: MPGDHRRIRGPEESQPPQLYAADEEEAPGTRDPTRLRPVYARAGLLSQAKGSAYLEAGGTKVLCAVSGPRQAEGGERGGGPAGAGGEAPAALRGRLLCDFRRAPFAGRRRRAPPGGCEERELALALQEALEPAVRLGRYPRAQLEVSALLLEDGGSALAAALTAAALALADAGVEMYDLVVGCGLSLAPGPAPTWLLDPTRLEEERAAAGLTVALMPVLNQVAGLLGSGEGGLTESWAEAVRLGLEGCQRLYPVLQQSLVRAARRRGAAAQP
# UniProt O60645: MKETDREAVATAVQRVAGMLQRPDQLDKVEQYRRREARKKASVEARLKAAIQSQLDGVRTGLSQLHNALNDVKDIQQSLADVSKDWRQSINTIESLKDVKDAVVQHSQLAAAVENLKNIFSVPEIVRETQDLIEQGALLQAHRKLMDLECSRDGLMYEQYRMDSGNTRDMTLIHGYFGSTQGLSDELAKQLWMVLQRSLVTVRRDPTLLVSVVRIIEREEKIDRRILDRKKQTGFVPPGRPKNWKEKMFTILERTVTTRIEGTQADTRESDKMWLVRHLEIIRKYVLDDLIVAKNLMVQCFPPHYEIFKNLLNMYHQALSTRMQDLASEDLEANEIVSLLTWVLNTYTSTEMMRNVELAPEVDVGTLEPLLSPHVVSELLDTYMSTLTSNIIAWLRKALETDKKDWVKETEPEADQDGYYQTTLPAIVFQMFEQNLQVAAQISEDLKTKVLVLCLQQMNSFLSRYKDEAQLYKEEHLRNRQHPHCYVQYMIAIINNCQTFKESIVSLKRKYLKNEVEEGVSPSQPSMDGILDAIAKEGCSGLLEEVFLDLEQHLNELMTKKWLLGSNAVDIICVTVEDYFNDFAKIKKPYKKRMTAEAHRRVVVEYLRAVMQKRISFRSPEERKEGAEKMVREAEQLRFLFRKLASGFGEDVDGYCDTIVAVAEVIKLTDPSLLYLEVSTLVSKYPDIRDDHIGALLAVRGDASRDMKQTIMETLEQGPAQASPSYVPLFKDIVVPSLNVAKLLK
# UniProt Q8IYI6: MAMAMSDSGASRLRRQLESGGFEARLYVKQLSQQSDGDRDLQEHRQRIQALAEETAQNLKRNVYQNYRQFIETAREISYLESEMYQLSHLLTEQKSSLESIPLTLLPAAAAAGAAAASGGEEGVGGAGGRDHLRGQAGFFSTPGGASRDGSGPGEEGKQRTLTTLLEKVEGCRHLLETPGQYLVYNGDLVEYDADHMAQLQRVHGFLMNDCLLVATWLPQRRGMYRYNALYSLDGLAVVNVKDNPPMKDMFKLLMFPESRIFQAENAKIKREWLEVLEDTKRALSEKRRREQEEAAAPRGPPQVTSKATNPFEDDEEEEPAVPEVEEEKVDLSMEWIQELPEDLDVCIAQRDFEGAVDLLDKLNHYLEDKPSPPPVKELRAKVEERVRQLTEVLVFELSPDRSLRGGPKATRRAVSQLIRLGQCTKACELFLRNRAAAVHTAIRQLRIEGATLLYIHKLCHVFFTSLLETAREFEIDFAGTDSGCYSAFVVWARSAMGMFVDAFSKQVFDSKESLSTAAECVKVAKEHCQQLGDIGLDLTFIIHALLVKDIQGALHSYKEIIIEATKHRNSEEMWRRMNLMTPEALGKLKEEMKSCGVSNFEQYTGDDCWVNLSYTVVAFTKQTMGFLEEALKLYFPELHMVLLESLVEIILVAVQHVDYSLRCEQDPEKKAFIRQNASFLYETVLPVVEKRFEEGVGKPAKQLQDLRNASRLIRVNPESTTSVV
# UniProt Q13868, whole entry, looked up: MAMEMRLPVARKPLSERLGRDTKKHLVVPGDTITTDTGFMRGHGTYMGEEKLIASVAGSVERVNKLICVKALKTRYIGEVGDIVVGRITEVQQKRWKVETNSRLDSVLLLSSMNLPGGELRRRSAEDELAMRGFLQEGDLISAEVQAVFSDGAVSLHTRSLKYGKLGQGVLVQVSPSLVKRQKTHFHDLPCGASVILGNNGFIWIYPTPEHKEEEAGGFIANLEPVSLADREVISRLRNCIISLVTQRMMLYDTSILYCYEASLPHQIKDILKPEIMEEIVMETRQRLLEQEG
# UniProt O60447: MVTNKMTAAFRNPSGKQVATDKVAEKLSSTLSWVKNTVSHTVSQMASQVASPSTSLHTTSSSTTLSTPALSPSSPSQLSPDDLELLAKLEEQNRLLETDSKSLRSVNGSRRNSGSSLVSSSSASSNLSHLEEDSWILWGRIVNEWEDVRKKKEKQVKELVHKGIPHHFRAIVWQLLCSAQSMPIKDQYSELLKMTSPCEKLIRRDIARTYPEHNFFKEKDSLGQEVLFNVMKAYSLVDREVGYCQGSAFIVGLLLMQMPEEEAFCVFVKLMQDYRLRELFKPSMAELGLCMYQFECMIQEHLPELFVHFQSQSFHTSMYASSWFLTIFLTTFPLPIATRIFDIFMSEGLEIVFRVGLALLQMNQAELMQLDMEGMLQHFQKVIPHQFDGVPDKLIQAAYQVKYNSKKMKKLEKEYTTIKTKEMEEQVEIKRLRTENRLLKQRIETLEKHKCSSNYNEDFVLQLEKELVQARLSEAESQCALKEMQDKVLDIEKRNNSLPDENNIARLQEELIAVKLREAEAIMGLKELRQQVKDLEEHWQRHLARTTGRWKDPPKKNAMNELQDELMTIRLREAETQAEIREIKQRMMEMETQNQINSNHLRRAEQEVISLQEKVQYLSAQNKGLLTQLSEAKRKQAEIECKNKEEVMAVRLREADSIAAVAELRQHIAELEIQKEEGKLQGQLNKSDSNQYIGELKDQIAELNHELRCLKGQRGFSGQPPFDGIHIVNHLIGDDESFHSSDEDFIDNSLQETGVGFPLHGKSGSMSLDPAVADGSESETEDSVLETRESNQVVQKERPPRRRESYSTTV
# UniProt Q9BS26: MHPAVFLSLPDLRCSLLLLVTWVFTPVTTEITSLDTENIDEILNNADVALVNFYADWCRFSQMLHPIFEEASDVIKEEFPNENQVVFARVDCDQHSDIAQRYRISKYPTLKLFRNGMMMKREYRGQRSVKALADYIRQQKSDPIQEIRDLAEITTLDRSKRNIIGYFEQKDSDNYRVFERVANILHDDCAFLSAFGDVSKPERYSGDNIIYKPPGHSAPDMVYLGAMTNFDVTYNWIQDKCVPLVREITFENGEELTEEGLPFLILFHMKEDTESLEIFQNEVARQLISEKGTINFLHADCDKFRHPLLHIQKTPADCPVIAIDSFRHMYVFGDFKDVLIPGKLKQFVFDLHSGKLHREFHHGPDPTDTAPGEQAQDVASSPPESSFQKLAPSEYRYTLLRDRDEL
# The list shows a part of the results.
# Compound: CC1Cc2ccccc2N1C(=O)C1CCCN(C1)C(=O)CCl (mixture of isomers) [TRIM25 ligand 11 (diastereomer mixture)]
# Assay: probe-labelled cysteine peptide fold change vs DMSO (competition) (log2 fold change); higher = less target engagement (more negative = stronger competition)
# Conditions: THP-1, incubation time: 4 h
# 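Also: competitive chemoproteomic profiling in live THP-1 cells with an iodoacetamide desthiobiotin (IA-DTB) probe, comparing probe-labelled peptide intensities in compound-treated cells against DMSO-treated controls.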
Target,probe-labelled cysteine peptide fold change (10 µM),probe-labelled cysteine peptide fold change (50 µM)
ESF1_Q9H501_462_IYEDCDGLEFESSCSFIDLR (UniProt Q9H501),0.0286,0.0891
FAM120A_Q9NZB2_174_VAQSIEDHHQEVIGFCR (UniProt Q9NZB2),0.0766,0.155
FABP5_Q01469_47_KMGAMAKPDCIITCDGK (UniProt Q01469),-0.129,-0.18
ETFA_P13804_109_QFNYTHICAGASAFGK (UniProt P13804),-0.113,-0.0426
FABP5_Q01469_120_LVVECVMNNVTCTR (UniProt Q01469),-0.00113,0.0585
ESD_P10768_56_CPALYWLSGLTCTEQNFISK (UniProt P10768),0.134,0.228
EXOC1_Q9NV70_304+314_GIEACTNAADALLQCMNVALRPGHDLLLAVK (UniProt Q9NV70),0.235,0.018
EXOC1_Q9NV70_650_CISNQIR (UniProt Q9NV70),-0.028,0.123
ERH_P84090_33_TYADYESVNECMEGVCK (UniProt P84090),-0.365,-0.0983
ERCC2_P18074_588_YQEACENGR (UniProt P18074),0.15,0.0126
FAM102B_Q5T8I3_254_NTSVGSTSTGVESILEPCDEIEQK (UniProt Q5T8I3),0.0722,-0.0455
FABP5_Q01469_67_TTQFSCTLGEK (UniProt Q01469),-0.00176,0.0861
ERLIN1_O75477_310_IYFGSNIPNMFVDSSCALK (UniProt O75477),0.102,-0.23
ERI1_Q8IV48_243_FLNIQCQLSR (UniProt Q8IV48),0.0207,0.0892
EXOSC7_Q15024_189_DIELSDDPYDCIR (UniProt Q15024),0.111,0.141
EXOSC9_Q06265_9_MKETPLSNCER (UniProt Q06265),-0.282,-0.321
ERO1B_Q86YB8_130_ELEDCEQANK (UniProt Q86YB8),-0.117,-0.152
FAM122A_Q96E09_193_SQSPINCIRPSVLGPLK (UniProt Q96E09),-0.26,-0.21
EXOC6B_Q9Y2D4_32_EIESTDTACIGPTLR (UniProt Q9Y2D4),0.0089,-0.249
EXOC1_Q9NV70_36_NCFLCATVTTERPVQVK (UniProt Q9NV70),0.101,0.0465
FAM114A2_Q9NRY5_438_EFTTCLTTAGVK (UniProt Q9NRY5),0.0981,0.0759
ETHE1_O95571_34_QMFEPVSCTFTYLLGDR (UniProt O95571),-0.138,0.294

Target,probe-labelled cysteine peptide fold change (10 µM),probe-labelled cysteine peptide fold change (50 µM)
FAM120B_Q96EK7_700_LDTLLACFNLSSSR (UniProt Q96EK7),0.116,0.383
ERGIC3_Q9Y282_155_CCNTCEDVR (UniProt Q9Y282),0.507,-0.197
EXOSC6_Q5RKV6_117_RAPPGGCEERELALALQEALEPAVR (UniProt Q5RKV6),-0.315,-0.327
FAM120B_Q96EK7_700_RLDTLLACFNLSSSR (UniProt Q96EK7),0.111,0.00986
EXOC3_O60645_161_LMDLECSR (UniProt O60645),-0.0155,-0.0768
EXOC8_Q8IYI6_211_VHGFLMNDCLLVATWLPQR (UniProt Q8IYI6),0.0221,-0.00217
ERLIN1_O75477_128_IHHELNQFCSAHTLQEVYIELFDQIDENLK (UniProt O75477),0.216,0.0433
ETV6_P41212_157_ILFSPFFHPGNSIHTQPEVILHQNHEEDNCVQR (UniProt P41212),0.0671,0.132
ESYT2_A0FGR8_210_HMWPFICQFIEK (UniProt A0FGR8),0.0844,0.0497
ESYT1_Q9BSJ8_995_LVSIVHGCR (UniProt Q9BSJ8),0.00116,0.0422
EXOSC7_Q15024_189_VLEDEEGSKDIELSDDPYDCIR (UniProt Q15024),-0.181,-0.152
ETFA_P13804_68_VAQDLCK (UniProt P13804),0.0134,0.0575
ERCC4_Q92889_560_EPLTIIHPLLGCSDPYALTR (UniProt Q92889),0.0503,-0.316
EXOSC2_Q13868_259_MMLYDTSILYCYEASLPHQIK (UniProt Q13868),0.00869,0.0694
ETFDH_Q16134_589_LQINAQNCVHCK (UniProt Q16134),0.13,0.0962
FAM102B_Q5T8I3_222_VSGYSTCHSR (UniProt Q5T8I3),0.0214,-0.118
EVI5_O60447_479_LSEAESQCALK (UniProt O60447),-0.0221,-0.169
ERP44_Q9BS26_189_VANILHDDCAFLSAFGDVSKPER (UniProt Q9BS26),0.131,0.193
FAM118A_Q9NWS6_113_TGDAKPSFFQDCLMEVFDDLEQHIR (UniProt Q9NWS6),0.104,-0.177
ETS1_P14921_237_QEVVTPDNMCMGR (UniProt P14921),-0.0223,-0.225
EXOSC6_Q5RKV6_117_APPGGCEERELALALQEALEPAVR (UniProt Q5RKV6),-0.0695,-0.408

# Individual results from the entries so far:
# ETV6_P41212_157_ILFSPFFHPGNSIHTQPEVILHQNHEEDNCVQR (UniProt P41212) | probe-labelled cysteine peptide fold change (10 µM): 0.0671
# EXOSC2_Q13868_259_MMLYDTSILYCYEASLPHQIK (UniProt Q13868) | probe-labelled cysteine peptide fold change (10 µM): 0.00869
# FAM102B_Q5T8I3_222_VSGYSTCHSR (UniProt Q5T8I3) | probe-labelled cysteine peptide fold change (10 µM): 0.0214
